According to patent US20220323425A1, “CO-POTENTIATORS FOR THERAPY OF CYSTIC FIBROSIS CAUSED BY MINIMAL FUNCTION CFTR MUTANTS” (THE REGENTS OF THE UNIVERSITY OF CALIFORNIA, priority 2019, published 2022):
At least one structure is not confirmed: it was looked up by name or label, or the drawing left a doubt.

Sequences of proteins named here, by UniProt entry; tags and fusion partners are left off. Residues count along the entry.
UniProt P13569, whole entry N1303K: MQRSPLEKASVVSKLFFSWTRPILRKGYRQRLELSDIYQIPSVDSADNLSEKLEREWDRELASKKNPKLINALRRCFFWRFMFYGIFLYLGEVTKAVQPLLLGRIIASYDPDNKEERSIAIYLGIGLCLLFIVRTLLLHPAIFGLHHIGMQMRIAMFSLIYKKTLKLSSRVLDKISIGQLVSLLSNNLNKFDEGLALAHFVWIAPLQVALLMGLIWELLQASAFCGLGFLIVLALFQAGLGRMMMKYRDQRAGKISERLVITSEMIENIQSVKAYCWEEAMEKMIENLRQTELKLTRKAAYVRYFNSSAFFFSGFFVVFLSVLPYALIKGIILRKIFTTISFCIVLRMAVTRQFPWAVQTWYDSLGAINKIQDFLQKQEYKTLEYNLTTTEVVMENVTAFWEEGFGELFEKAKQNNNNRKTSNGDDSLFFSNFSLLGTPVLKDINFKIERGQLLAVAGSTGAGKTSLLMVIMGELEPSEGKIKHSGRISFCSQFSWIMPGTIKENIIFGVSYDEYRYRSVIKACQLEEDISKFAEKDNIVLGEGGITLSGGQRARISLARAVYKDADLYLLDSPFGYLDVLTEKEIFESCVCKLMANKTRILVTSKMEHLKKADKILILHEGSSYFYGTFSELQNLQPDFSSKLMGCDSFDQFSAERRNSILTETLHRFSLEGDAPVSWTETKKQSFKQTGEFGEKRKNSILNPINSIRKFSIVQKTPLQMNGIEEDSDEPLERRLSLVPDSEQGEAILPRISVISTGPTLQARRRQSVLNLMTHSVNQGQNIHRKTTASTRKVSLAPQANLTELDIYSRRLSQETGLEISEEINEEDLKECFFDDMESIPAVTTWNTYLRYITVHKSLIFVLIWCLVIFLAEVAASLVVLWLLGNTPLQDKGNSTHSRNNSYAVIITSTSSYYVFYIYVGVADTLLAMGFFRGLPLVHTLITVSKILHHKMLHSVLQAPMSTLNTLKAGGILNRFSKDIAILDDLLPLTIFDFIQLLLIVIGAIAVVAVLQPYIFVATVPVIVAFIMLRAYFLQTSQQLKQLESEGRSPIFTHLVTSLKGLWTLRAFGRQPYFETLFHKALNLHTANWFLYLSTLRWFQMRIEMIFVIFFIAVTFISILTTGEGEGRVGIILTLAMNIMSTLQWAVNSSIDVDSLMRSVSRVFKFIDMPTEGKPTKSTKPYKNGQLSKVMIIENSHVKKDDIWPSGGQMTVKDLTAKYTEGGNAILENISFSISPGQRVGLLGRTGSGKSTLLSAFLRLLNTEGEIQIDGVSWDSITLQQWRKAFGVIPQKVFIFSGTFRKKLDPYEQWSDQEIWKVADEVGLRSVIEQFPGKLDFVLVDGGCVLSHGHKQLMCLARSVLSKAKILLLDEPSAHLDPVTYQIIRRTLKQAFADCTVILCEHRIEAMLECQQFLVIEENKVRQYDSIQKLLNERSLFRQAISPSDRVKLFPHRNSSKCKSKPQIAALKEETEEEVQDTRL
UniProt P13569, 1-1312 limits assumed: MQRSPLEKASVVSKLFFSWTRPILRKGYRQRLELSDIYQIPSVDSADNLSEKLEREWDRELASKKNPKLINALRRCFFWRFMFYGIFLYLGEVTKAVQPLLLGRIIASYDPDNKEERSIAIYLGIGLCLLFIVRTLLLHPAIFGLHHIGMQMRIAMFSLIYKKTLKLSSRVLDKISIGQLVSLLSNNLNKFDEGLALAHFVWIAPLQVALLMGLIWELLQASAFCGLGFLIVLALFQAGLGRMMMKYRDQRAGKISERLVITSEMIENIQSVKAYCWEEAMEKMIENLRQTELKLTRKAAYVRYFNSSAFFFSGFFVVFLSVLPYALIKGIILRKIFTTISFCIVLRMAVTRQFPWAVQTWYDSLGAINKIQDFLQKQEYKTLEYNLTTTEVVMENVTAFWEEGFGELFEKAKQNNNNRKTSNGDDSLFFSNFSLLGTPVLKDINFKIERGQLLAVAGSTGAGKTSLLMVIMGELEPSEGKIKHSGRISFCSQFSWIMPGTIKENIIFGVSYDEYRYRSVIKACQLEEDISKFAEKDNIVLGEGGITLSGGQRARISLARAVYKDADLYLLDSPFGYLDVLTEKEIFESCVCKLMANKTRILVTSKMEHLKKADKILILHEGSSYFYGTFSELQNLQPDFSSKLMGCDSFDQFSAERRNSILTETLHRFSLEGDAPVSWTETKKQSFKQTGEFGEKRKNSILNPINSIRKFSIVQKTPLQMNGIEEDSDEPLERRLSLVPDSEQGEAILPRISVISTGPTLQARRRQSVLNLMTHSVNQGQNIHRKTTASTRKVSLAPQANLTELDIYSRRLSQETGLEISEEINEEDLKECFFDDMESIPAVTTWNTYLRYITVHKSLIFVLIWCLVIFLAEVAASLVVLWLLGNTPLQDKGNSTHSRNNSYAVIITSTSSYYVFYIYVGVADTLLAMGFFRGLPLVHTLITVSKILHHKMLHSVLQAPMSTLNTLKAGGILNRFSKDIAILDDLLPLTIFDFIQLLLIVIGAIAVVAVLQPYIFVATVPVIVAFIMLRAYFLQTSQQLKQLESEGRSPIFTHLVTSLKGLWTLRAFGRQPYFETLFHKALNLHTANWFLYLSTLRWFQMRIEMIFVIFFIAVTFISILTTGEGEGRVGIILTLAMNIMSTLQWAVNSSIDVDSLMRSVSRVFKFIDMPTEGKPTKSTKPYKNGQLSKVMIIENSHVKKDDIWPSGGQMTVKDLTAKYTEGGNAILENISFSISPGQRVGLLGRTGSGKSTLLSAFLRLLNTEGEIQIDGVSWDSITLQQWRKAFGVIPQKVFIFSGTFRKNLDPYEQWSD

Key:
[1] = biological target: N1303K-CFTR (Homo sapiens, UniProt P13569, N1303K); test: Short-circuit current in FRT cells expressing N1303K-CFTR; type: cell-based; design: expressed in transfected cells; host or cells: Fischer rat thyroid (FRT) cells; details: 20 μM forskolin, 5 μM VX-770, 20 μM test potentiator
Description: Short-circuit current was measured on cells cultured on permeable supports (Corning) as described (Haggie, 2017; Phuan, 2018). For FRT cells, the basolateral membrane was permeabilized with 250 μg/mL amphotericin B, and experiments were done using a HCO3^−-buffered system (in mM: 120 NaCl, 5 KCl, 1 MgCl2, 1 CaCl2), 5 Hepes, 25 NaHCO3, 10 glucose, pH 7.4) with a basolateral to apical chloride gradient (60 mM NaCl replaced by sodium gluconate in the apical solution). For human airway epithelial cells, symmetrical HCO3^−-buffered solutions (containing 120 mM NaCl) were used. Cells were equilibrated with 95% O2, 5% CO2 and maintained at 37° C. […]
(§1) GraphPad Prism software (GraphPad Inc., San Diego, Calif., USA) was used for statistical analysis. EC50 values were determined by non-linear regression to a single-site inhibition model. Statistical significance was determined using unpaired Student's t test, with P<0.05 considered significant.
Co-potentiator efficacy was initially determined by short-circuit current measurements in FRT cells expressing N1303K-CFTR in the presence of a transepithelial chloride gradient and with permeabilization of the basolateral cell membrane such that measured current directly reports CFTR channel activity. […]

[2] = biological target: T1, Q1313X-CFTR (Homo sapiens, UniProt P13569); test: Short-circuit current in FRT cells expressing Q1313X-CFTR; type: cell-based; details: 20 μM forskolin, 5 μM VX-770; 25 μM apigenin, others 20 μM
T1 construct: several truncated forms of CFTR resulting from premature termination codons (PTCs) located in NBD2; expressed in transfected cells; host or cells: FRT cells, pIRESpuro3 vector, puromycin-selected clonal lines
Description: Short-circuit current was measured on cells cultured on permeable supports (Corning) as described (Haggie, 2017; Phuan, 2018). For FRT cells, the basolateral membrane was permeabilized with 250 μg/mL amphotericin B, and experiments were done using a HCO3^−-buffered system (in mM: 120 NaCl, 5 KCl, 1 MgCl2, 1 CaCl2), 5 Hepes, 25 NaHCO3, 10 glucose, pH 7.4) with a basolateral to apical chloride gradient (60 mM NaCl replaced by sodium gluconate in the apical solution). For human airway epithelial cells, symmetrical HCO3^−-buffered solutions (containing 120 mM NaCl) were used. Cells were equilibrated with 95% O2, 5% CO2 and maintained at 37° C. Hemichambers were connected to a DVC-1000 voltage clamp (World Precision Instruments Inc., Sarasota, Fla.) via Ag/AgCl electrodes and 3 M KCl agar bridges for recording of the short-circuit current.
as §1

CCN(c1ccccc1)S(=O)(=O)c1ccc2[nH]cc(C(=O)NCc3ccccc3OC)c(=O)c2c1 [Compound P3, 6-(ethyl-phenyl-sulfonyl)-4-oxo-1,4-dihydro-quinoline-3-carboxylic acid 2-methoxy-benzylamide, reference compound]
short-circuit current response when added after VX-770 [1]: did not further increase current
short-circuit current response when added after VX-770 [2]: did not elevate current
